According to PubChem BioAssay AID540276 (National Center for Advancing Translational Sciences (NCATS), 2011):
Values joined by “and” are separate entries in the source; they are usually repeats but may differ in a detail not shown here. Identical values can stand only once. The campaign covered roughly 300,000 compounds. About 5,400 (1.8%) were called active. This list was built around the results that the source calls inconclusive (neither active nor inactive); the mix of calls is not that of the screen. Calls follow the shape of the full dose curve; tested in HEK293 cells. Where the call is inconclusive, the potency comes from a doubtful curve fit.

Experiment: qHTS for inhibitors of binding or entry into cells for Marburg Virus
Conditions: Marburg virus pseudotyped entry inhibition, cell reporter; activity change, negative = inhibition: at 37.8 µM (top of the series) unless noted
% is scaled to controls: 0 for no effect and ±100 for the full control effect; potency is read from the fitted curve at half-maximal effect.

SMILES	Potency	activity change, negative = inhibition
Cc1ccc(N2C(=O)c3n[nH]c(C)c3C2c2ccc(C(C)C)cc2)cc1 (stereo not given)	inconclusive: 15.8 µM [inhibitor, single point]	
COc1ccccc1CN1CCN(C(CC(C)C)c2nnnn2Cc2cccs2)CC1 (stereo not given)	inactive and inconclusive: 22.4 µM [inhibitor, single point]	
Cc1ccc(-n2cccn2)c(CN2CCCC(CNC(=O)c3ccc(F)cc3)C2)c1 (stereo not given)	inconclusive: 20 µM [inhibitor, partial curve, poor fit]	
CCOC(=O)c1cc(-c2ccc(OC)cc2)nn1-c1ccc(C(=O)O)cc1	inconclusive: 35.5 µM [inhibitor, single point]	
CN(C(=O)c1cccc(S(=O)(=O)N2CCCCC2)c1)C1CCS(=O)(=O)C1 (stereo not given)	inconclusive: 17.8 µM [activator, single point]	
COc1ccc(-n2ncc3c(N4CCCc5ccccc54)ncnc32)cc1	inconclusive: 11.2 µM [inhibitor, single point]	
OC1CCCN(CC(O)COc2ccc(-c3ccccc3)cc2)C1 (stereo not given)	inconclusive: 22.4 µM [inhibitor, single point]	
CCN(CC)CCN(Cc1cc2cc(C)c(C)cc2[nH]c1=O)C(=S)NCc1ccco1	inconclusive: 17.8 µM [inhibitor, single point]	
Cc1cc(Cl)ccc1OC(C)C(=O)Nc1ccc([N+](=O)[O-])cn1 (stereo not given)	inconclusive: 5.62 µM [inhibitor, full curve, poor fit]	
CCCc1cc(C(=O)NNC(=S)Nc2cccc(C)c2)cs1	inconclusive: 16.4 µM [activator, single point]	
COc1ccc(C/C(C)=N/NC(=S)Nc2ccc(C(C)C)cc2)cc1	inconclusive: 35.5 µM [activator, single point]	
OCCN1CCN(CC#CCn2c3ccccc3c3ccccc32)CC1	inconclusive: 2.51 µM [inhibitor, partial curve, poor fit]	
COc1cccc(N2CCN(C(=O)CN3C(=O)NC(C)(c4ccc5ccccc5c4)C3=O)CC2)c1 (stereo not given)	inconclusive: 35.5 µM [inhibitor, single point]	
Brc1ccc2[nH]c3c(N4CCc5ccccc5C4)ncnc3c2c1	inconclusive: 14.6 µM [inhibitor, partial curve, poor fit]	
Cc1nc(/N=C(\N)NC(=O)N2c3ccccc3Sc3ccccc32)nc2ccccc12		inactive: -20.6%
CCOc1cccc(NC(=O)C2CC(=O)NC(=Nc3ccccc3)S2)c1 (stereo not given)	inconclusive: 35.5 µM [inhibitor, single point]	
CN(C)c1ccc(CNc2nc(-c3ccco3)nn2S(C)(=O)=O)cc1	inconclusive: 1.78 µM [activator, full curve, poor fit]	
CCOC(=O)c1[nH]c2c(c1Cc1ccccc1)C(=O)CC(c1ccc(OC)cc1)C2 (stereo not given)	inconclusive: 35.5 µM [inhibitor, single point]	
Cc1sc2nc(CN3CCCC3)nc(N3CCN(C(=O)c4ccco4)CC3)c2c1C	inconclusive: 7.08 µM [inhibitor, partial curve, poor fit]	
O=C(/C=C/c1cccc(Cl)c1)c1nc2ccccc2[nH]1	inconclusive: 18.3 µM [inhibitor, partial curve, poor fit]	

SMILES	Potency	activity change, negative = inhibition
O=C(c1cccc(C(=O)N2CCN(c3ccc(F)cc3)CC2)c1)N1CCN(c2ccc(F)cc2)CC1	inconclusive: 18.3 µM [inhibitor, single point]	
CC(=O)CCS(=O)(=O)c1ccc(Oc2ccc(S(=O)(=O)CCC(C)=O)cc2)cc1	inconclusive: 7.08 µM [inhibitor, partial curve, poor fit]	
O=C(O)CSCC(=O)N1CCN(Cc2ccc3c(c2)OCO3)CC1	inconclusive: 0.891 µM [activator, full curve, poor fit]	
O=C(N/N=C/C(Br)=C/c1ccccc1)c1cc(-c2ccco2)[nH]n1	inconclusive: 8.91 µM [inhibitor, partial curve, poor fit]	
Cn1c(SCC(=O)Nc2ccc3c(c2)CCC3)nnc1C1CC1	inconclusive: 11.2 µM [activator, partial curve, poor fit]	
CCN(CC)CCNC(=O)c1cc2cc(Br)ccc2s1	inconclusive: 14.1 µM [inhibitor, single point]	
O=c1c(C(c2ccc(Br)cc2)c2c(O)nc3n(c2=O)CCS3)c(O)nc2n1CCS2	inconclusive: 35.5 µM [activator, single point]	
COc1cccc(-n2c(C)nc3c(cnn3-c3ccc(C)cc3)c2=O)c1	inconclusive: 20 µM [inhibitor, single point]	
CC(C)C(=O)Nc1ccc(NC(=O)c2ccc([N+](=O)[O-])cc2Cl)cc1	inconclusive: 2.51 µM [activator, partial curve, poor fit]	
CCOC(=O)c1[nH]c2ccccc2c1NC(=O)c1ccc(Br)o1	inconclusive: 8.2 µM [inhibitor, partial curve, poor fit]	
Cn1c(Oc2ccc(F)cc2F)c(C=O)c2ccccc21	inconclusive: 0.891 µM [inhibitor, full curve, poor fit]	
CC1CC(C)CN(CCCNC(=O)CN2C(=O)c3cccnc3Oc3ccccc32)C1 (stereo not given)	inconclusive: 15.8 µM [inhibitor, single point]	
CC1=C(C)CC(C(=O)NNC(=O)c2ccccc2O)C(C(=O)O)C1 (stereo not given)	inconclusive: 0.562 µM [inhibitor, partial curve, poor fit]	
O=C(Nc1cccnc1Cl)c1ccc(Cl)cc1	inconclusive: 5.01 µM [activator, partial curve]	
COc1ccc(Cc2nnc(SCC(=O)NCc3ccco3)o2)cc1	inconclusive: 0.651 µM [inhibitor, partial curve, poor fit]	
CCN1C(=NCCc2ccc(Br)cc2)N[C@@H](c2ccccc2)[C@H](C(=O)OC)[C@H]1C	inconclusive: 0.841 µM [activator, partial curve, poor fit]	
CCc1ccc2occ(CC(=O)Nc3c(C(=O)Nc4ccc(Cl)cc4)oc4ccccc34)c2c1		inactive: -3.77% [at 46.1 µM]
COCCCNc1ncnc2c1cnn2-c1ccc(C)cc1C		inactive: -0.544%
Cc1cc(C(=O)N2CCCC(CCC(=O)N3CCN(c4ccccn4)CC3)C2)c(C)o1 (stereo not given)		inactive: -12.7% [at 46.1 µM]
COc1cccc(CN(Cc2ccco2)C(c2ccc(F)cc2)c2nnnn2C(C)(C)C)c1 (stereo not given)	inconclusive: 12.6 µM [inhibitor, partial curve, poor fit]	

SMILES	Potency	activity change, negative = inhibition
COc1ccc(OCc2nn3c(Cn4cnc5ccccc54)nnc3s2)cc1	inconclusive: 5.17 µM [inhibitor, single point]	
C/C(=N\NC(=O)c1cccc(F)c1)c1cccc(NC(=O)c2ccc(F)cc2)c1	inconclusive: 2.24 µM [inhibitor, partial curve, poor fit]	
COc1ccc2cc([C@H](C)C(=O)N(C)Cc3ccccc3N3CCCC3)ccc2c1	inconclusive: 17.8 µM [inhibitor, partial curve, poor fit]	
CCn1nnnc1SCC(=O)c1cccc(OC)c1	inconclusive: 0.282 µM [activator, full curve, poor fit]	
CC(=O)N1CCN(C(=O)c2cc3c(s2)CCCC3)CC1		inactive: 25%
COc1ccc(N(CC(=O)NCc2ccc(C)cc2)S(=O)(=O)c2ccccc2[N+](=O)[O-])c(OC)c1	inconclusive: 12.6 µM [inhibitor, partial curve, poor fit]	
O=C(CCS(=O)(=O)c1ccccc1)Nc1ccc(N2CCN(Cc3ccccc3)CC2)cc1	inconclusive: 1.78 µM [activator, partial curve]	
Cc1[nH]c2ccccc2c1C(=O)CSC(=S)N1CCCCC1		inactive: 11%
O=C(Nc1ccc(NC(=O)C2CC2)nc1)c1ccco1	inconclusive: 31.6 µM [activator, single point]	
Cc1oncc1C(=O)NC1CCCCC1	inconclusive: 3.16 µM [inhibitor, single point]	
O=C(NCC(c1ccco1)N1CCc2ccccc2C1)C(=O)Nc1ccccc1F (stereo not given)	inconclusive: 1.12 µM [inhibitor, partial curve, poor fit]	
CC(Oc1ccc(Cl)cc1Cl)c1nc(-c2ccc(NC(=O)c3ccccn3)cc2)no1 (stereo not given)	inconclusive: 13 µM [inhibitor, partial curve, poor fit]	
O=C(CN1C(=O)c2ccccc2S1(=O)=O)N1CCOCC1	inconclusive: 1.16 µM [activator, full curve]	
O=C(CSCc1cccc(Cl)c1)N/N=C/c1ccc(OCC(=O)N2CCCCC2)cc1	inconclusive: 14.6 µM [inhibitor, partial curve, poor fit]	
CCOc1ccc(S(=O)(=O)NC2CC2)cc1	inconclusive: 0.631 µM [inhibitor, single point]	
Cc1ccc(C)n1-c1ccc(NC(=O)c2ccccc2)cc1	inconclusive: 20 µM [inhibitor, single point]	
CCCSc1nnc2[nH]c(=O)cc(N)n12	inconclusive: 5.01 µM [inhibitor, full curve, poor fit]	
c1coc(-c2nc3ccccn3c2Nc2ccc3c(c2)OCCO3)c1	inconclusive: 2.82 µM [activator, full curve]	
Cc1ccc(/C=C2/C(=O)N(c3ccccc3)C(=S)N2C)o1	inconclusive: 25.1 µM [activator, single point]	
O=C(CCc1nnc2n(Cc3ccc(Cl)cc3)c(=O)c3ccccc3n12)NCCN1CCCC1	active: 10 µM	
